Laboratory results: PubChem BioAssay AID330 (DTP/NCI, 2004)
The list is a part of this screen's results and no random one: it gathers tests that were run many times, whatever their T/C, doses with no T/C, and many T/C values between a quarter and a half above the control. Further doses and runs are listed elsewhere. T/C gives the treated animals as a percentage of the vehicle group. Some doses have a count of surviving animals in place of a T/C: the source holds a T/C of zero for them, seemingly a mark for toxic or unscored doses. Some survivor counts are full or nearly so, which does not show that the dose was tolerated: the source hardly ever lists a survival T/C far under the control, and the zero likely stands for such cases as well. Counts of survivors are from the toxicity check (mostly the fifth day) where no day follows; animals may have died later. Schedules are NCI's codes, taken here to give the interval after Q, in days (D) or hours (H), and the number of doses after X. Where survival is the endpoint, the PubChem record calls one and a half times the control and up active, and a quarter to a half above the control has no call in these data; cut-offs in other NCI protocols can differ. Some T/C values are followed by the survivors on the day toxicity was checked, most often the fifth; without a count, all were alive then.

Test system: P388 leukemia ip, CD2F1 mice, survival T/C
Test: NCI In Vivo Anticancer Drug Screen. Data for tumor model P388 Leukemia (intraperitoneal) in CD2F1 (CDF1) mice
Conditions: T/C endpoint: median survival time, higher T/C = longer survival

## Oc1cccc2c1[O][Sb][O]2
dose: 8.0 mg/kg/injection, schedule: Q01DX009 (ip), vehicle: Klucel (hydroxypropylcellulose) (HPC)
  T/C: 129 % of control
dose: 8.0 mg/kg/injection, schedule: Q03HX008 (ip), vehicle: Klucel (hydroxypropylcellulose) (HPC)
  survivor count: 6 of 10
dose: 8.0 mg/kg/injection, schedule: Q03HX016 (ip), vehicle: Klucel (hydroxypropylcellulose) (HPC)
  survivor count: 5 of 10
dose: 16.0 mg/kg/injection, schedule: Q01DX009 (ip), vehicle: Klucel (hydroxypropylcellulose) (HPC)
  T/C: 133 % of control [9 of 10 alive]
dose: 16.0 mg/kg/injection, schedule: Q03HX008 (ip), vehicle: Klucel (hydroxypropylcellulose) (HPC)
  survivor count: 0 of 10
dose: 16.0 mg/kg/injection, schedule: Q03HX016 (ip), vehicle: Klucel (hydroxypropylcellulose) (HPC)
  survivor count: 1 of 10
dose: 16.0 mg/kg/injection, schedule: Q03HX024 (ip), vehicle: Klucel (hydroxypropylcellulose) (HPC)
  survivor count: 0 of 10
dose: 25.0 mg/kg/injection, schedule: Q01DX009 (ip), vehicle: saline
  T/C: 142 % of control
dose: 25.0 mg/kg/injection, schedule: Q04DX003 (ip), vehicle: saline with Tween-80
  T/C: 136 % of control
dose: 32.0 mg/kg/injection, schedule: Q01DX009 (ip), vehicle: Klucel (hydroxypropylcellulose) (HPC)
  T/C: 133 % of control
dose: 32.0 mg/kg/injection, schedule: Q03HX008 (ip), vehicle: Klucel (hydroxypropylcellulose) (HPC)
  survivor count: 0 of 10
dose: 32.0 mg/kg/injection, schedule: Q03HX016 (ip), vehicle: Klucel (hydroxypropylcellulose) (HPC)
  survivor count: 0 of 10
dose: 32.0 mg/kg/injection, schedule: Q03HX024 (ip), vehicle: Klucel (hydroxypropylcellulose) (HPC)
  survivor count: 0 of 10
dose: 32.0 mg/kg/injection, schedule: Q04DX003 (ip), vehicle: Klucel (hydroxypropylcellulose) (HPC)
  T/C: 131 % of control [8 of 10 alive]
dose: 32.0 mg/kg/injection, schedule: Q08DX002 (ip), vehicle: Klucel (hydroxypropylcellulose) (HPC)
  T/C: 131 % of control [9 of 10 alive]
dose: 50.0 mg/kg/injection, schedule: Q04DX003 (ip), vehicle: saline with Tween-80
  T/C: 136 % of control
dose: 64.0 mg/kg/injection, schedule: Q01DX009 (ip), vehicle: Klucel (hydroxypropylcellulose) (HPC)
  T/C: 138 % of control [7 of 10 alive]
dose: 64.0 mg/kg/injection, schedule: Q03HX008 (ip), vehicle: Klucel (hydroxypropylcellulose) (HPC)
  survivor count: 0 of 10
dose: 64.0 mg/kg/injection, schedule: Q03HX016 (ip), vehicle: Klucel (hydroxypropylcellulose) (HPC)
  survivor count: 0 of 10
dose: 64.0 mg/kg/injection, schedule: Q03HX024 (ip), vehicle: Klucel (hydroxypropylcellulose) (HPC)
  survivor count: 0 of 10
dose: 64.0 mg/kg/injection, schedule: Q04DX003 (ip), vehicle: Klucel (hydroxypropylcellulose) (HPC)
  T/C: 137 % of control [8 of 10 alive]
dose: 64.0 mg/kg/injection, schedule: Q08DX002 (ip), vehicle: Klucel (hydroxypropylcellulose) (HPC)
  T/C: 137 % of control [7 of 10 alive]
dose: 100.0 mg/kg/injection, schedule: Q01DX009 (ip), vehicle: saline
  survivor count: 2 of 6
dose: 100.0 mg/kg/injection, schedule: Q04DX003 (ip), vehicle: saline with Tween-80
  T/C: 136 % of control
dose: 128.0 mg/kg/injection, schedule: Q01DX009 (ip), vehicle: Klucel (hydroxypropylcellulose) (HPC)
  survivor count: 2 of 10
dose: 128.0 mg/kg/injection, schedule: Q03HX008 (ip), vehicle: Klucel (hydroxypropylcellulose) (HPC)
  survivor count: 0 of 10
dose: 128.0 mg/kg/injection, schedule: Q04DX003 (ip), vehicle: Klucel (hydroxypropylcellulose) (HPC)
  survivor count: 5 of 10
dose: 128.0 mg/kg/injection, schedule: Q08DX002 (ip), vehicle: Klucel (hydroxypropylcellulose) (HPC)
  survivor count: 6 of 10
dose: 256.0 mg/kg/injection, schedule: Q01DX001 (ip), vehicle: Klucel (hydroxypropylcellulose) (HPC)
  survivor count: 0 of 10
dose: 256.0 mg/kg/injection, schedule: Q04DX003 (ip), vehicle: Klucel (hydroxypropylcellulose) (HPC)
  survivor count: 0 of 10
dose: 256.0 mg/kg/injection, schedule: Q08DX002 (ip), vehicle: Klucel (hydroxypropylcellulose) (HPC)
  survivor count: 0 of 10
dose: 512.0 mg/kg/injection, schedule: Q01DX001 (ip), vehicle: Klucel (hydroxypropylcellulose) (HPC)
  survivor count: 0 of 10
dose: 512.0 mg/kg/injection, schedule: Q04DX003 (ip), vehicle: Klucel (hydroxypropylcellulose) (HPC)
  survivor count: 0 of 10
dose: 512.0 mg/kg/injection, schedule: Q08DX002 (ip), vehicle: Klucel (hydroxypropylcellulose) (HPC)
  survivor count: 0 of 10
dose: 1024.0 mg/kg/injection, schedule: Q01DX001 (ip), vehicle: Klucel (hydroxypropylcellulose) (HPC)
  survivor count: 0 of 10

## O=C(O)CC1SC(c2ccccc2Cl)N(/N=C/c2ccccc2Cl)C1=O (stereo not given)
dose: 100.0 mg/kg/injection, schedule: Q01DX009 (ip), vehicle: saline with Tween-80
  survivor count: 6 of 6
dose: 200.0 mg/kg/injection, schedule: Q01DX009 (ip), vehicle: saline with Tween-80
  survivor count: 6 of 6

## O=C1NCCCC1(Cl)Cl
dose: 50.0 mg/kg/injection, schedule: Q01DX009 (ip), vehicle: Klucel (hydroxypropylcellulose) (HPC)
  survivor count: 6 of 6
dose: 100.0 mg/kg/injection, schedule: Q01DX009 (ip), vehicle: Klucel (hydroxypropylcellulose) (HPC)
  survivor count: 6 of 6
dose: 200.0 mg/kg/injection, schedule: Q01DX009 (ip), vehicle: Klucel (hydroxypropylcellulose) (HPC)
  survivor count: 6 of 6

## CC1(C)COC(=O)/C1=C1\SC(=S)NC1=O
dose: 400.0 mg/kg/injection, schedule: Q04DX003 (ip), vehicle: saline
  survivor count: 4 of 6

## Cc1ccc(NC(=O)/C(Cl)=C(\Cl)C(=O)O)cc1C
dose: 30.0 mg/kg/injection, schedule: Q01DX005 (ip), vehicle: saline with Tween-80
  survivor count: 2 of 6
dose: 60.0 mg/kg/injection, schedule: Q01DX005 (ip), vehicle: saline with Tween-80
  survivor count: 0 of 6
dose: 120.0 mg/kg/injection, schedule: Q01DX005 (ip), vehicle: saline with Tween-80
  survivor count: 0 of 6
dose: 240.0 mg/kg/injection, schedule: Q01DX005 (ip), vehicle: saline with Tween-80
  survivor count: 0 of 6
